Results: PubChem BioAssay AID540256 (National Center for Advancing Translational Sciences (NCATS), 2011)
The whole screen tested about 300,000 compounds, of which about 3,700 (1.2%) were called active. This list was built around the results that the source calls inconclusive (neither active nor inactive); the mix of calls is not that of the screen. Calls follow the shape of the full dose curve; tested in HEK293 cells. A potency beside an inconclusive call is a rough fit, not a confirmed value.

Assay: qHTS for Inhibitors of binding or entry into cells for Lassa Virus; also: nearly all actives have a fitted effect of over 50% in size
Details: Lassa virus pseudotype entry inhibition, cell reporter; activity change, negative = inhibition: at 37.9 µM (top of the series) unless noted
% is scaled to controls: 0 for no effect and ±100 for the full control effect; potency is read from the fitted curve at half-maximal effect.

SMILES	Potency	activity change, negative = inhibition
Cc1c(C(=O)Nc2ccc3oc(-c4cccnc4)nc3c2)oc2ccccc12	active: 18.3 µM	
COCCNc1oc(/C=C/c2ccccc2)nc1C#N	inconclusive: 1.26 µM [activator, single point]	
Cc1cn2c(=O)c(C(=O)N3CCN(c4ccccc4)CC3)cnc2s1	inconclusive: 0.501 µM [activator, single point]	
Cc1cc2nc(SCC(=O)Nc3ccccc3C(=O)O)[nH]c2cc1C	inconclusive: 35.5 µM [activator, single point]	
Cc1ccc(-n2ncc(C(=O)N3CCN(C4CCCCC4)CC3)c2C2CCN(C(=O)OC(C)(C)C)CC2)cc1C	active: 2 µM	
COc1cccc(C(C(=O)NCC2CCCO2)N(C(=O)Cn2nnc3ccccc32)c2ccc(NC(C)=O)cc2)c1OC (stereo not drawn)		inconclusive: 7.74% [activator]
Cc1ccc(S(=O)(=O)N2CCC(C(=O)NCCC3=CCCCC3)CC2)c(C)c1	inconclusive: 35.5 µM [inhibitor, single point]	
COc1ccc(CCNC(=O)c2nnn(-c3ccccc3OC)c2N)cc1OC	inactive	
O=C(Nc1cccc(C(=O)O)c1)Nc1cccc2ccccc12	inconclusive: 4.47 µM [inhibitor, full curve]	
Cc1cc(C)cc(NC(=S)N2CCN(C(=O)c3ccco3)CC2)c1	inconclusive: 15.8 µM [inhibitor, single point]	
Cc1nc2nc(C)c(NS(=O)(=O)c3ccc(F)cc3)c(=O)n2[nH]1	inactive	
Cc1ccc(S(=O)(=O)N2CCCC(c3nc(-c4ccc(C)o4)no3)C2)cc1 (stereo not drawn)	inactive	
Cc1cc(S(=O)(=O)c2ccc([N+](=O)[O-])cn2)ccc1Br	inconclusive: 28.2 µM [inhibitor, single point]	
CCOc1ccc(NC(=O)C2CCCN(c3nn4cc(-c5ccc(OC)cc5)nc4s3)C2)cc1 (stereo not drawn)	inactive	
CCn1nnc(-c2ccccc2NS(=O)(=O)c2ccc(S(=O)(=O)N(C)C3CCCCC3)cc2)n1	inconclusive: 29.1 µM [inhibitor, single point]	
COc1ccc(/C=C2/N=C(SC)NC2=O)cc1OC	inconclusive: 22.4 µM [inhibitor, single point]	
c1ccc(CSc2n[nH]c(-c3ccco3)n2)cc1	inconclusive: 4.11 µM [activator, single point]	
CCCS(=O)(=O)NCCc1csc2nc(-c3ccc(C)cc3)nn12	inactive	
O=C(NCC1COc2ccccc2O1)Nc1ccccc1F (stereo not drawn)	inconclusive: 13 µM [inhibitor, partial curve, poor fit]	
COc1cc(SC)ccc1C(=O)N1CCN(c2ccccc2OC)CC1	inconclusive: 3.16 µM [inhibitor, single point]	
CC1CCCCN1S(=O)(=O)c1ccc(C(=O)N(CCCN(C)C)c2nc3cc4c(cc3s2)OCO4)cc1 (stereo not drawn)	inactive	
CCCCNC(=O)CCC(=O)Nc1ncc(-c2ccc(C)cc2)n1C	inactive	
CCOC(=O)N(CC)c1ccc(C(O)(C(=O)OCC)C(F)(F)F)cc1 (stereo not drawn)	active: 10 µM	

SMILES	Potency	activity change, negative = inhibition
CC(C)COc1ccc(-c2nnc(-c3ccncc3)o2)cc1	inconclusive: 29.1 µM [inhibitor, single point]	
COc1ccc2[nH]c(=O)c(CN(CC3CCCO3)C(=O)Nc3ccc(F)cc3)cc2c1 (stereo not drawn)	active: 11.2 µM	
C=C(C)COc1ccc(-c2nc(N)ncc2Oc2ccc(OC)cc2)c(O)c1	inconclusive: 10 µM [inhibitor, partial curve, poor fit]	
Clc1nc(N2CCOCC2)ncc1Br	inconclusive: 35.5 µM [inhibitor, single point]	
CCN1C(=O)C=CC1=O	inactive	
CCOc1ccc(N2C(=O)CC(Sc3nnnn3-c3ccccc3)C2=O)cc1 (stereo not drawn)	inactive	
O=C(O)c1ccc(N/N=C/C=C/c2ccccc2[N+](=O)[O-])cc1	inconclusive: 2.82 µM [activator, partial curve, poor fit]	
COc1ccc(S(=O)(=O)N2CCCCCC2)cc1C(=O)N(CC(C)C)C1CCS(=O)(=O)C1 (stereo not drawn)	inconclusive: 3.16 µM [inhibitor, partial curve, poor fit]	
Brc1c(CSc2nnc(-c3ccco3)o2)nc2ccccn12	inconclusive: 2.82 µM [activator, partial curve, poor fit]	
Cc1ccc(NC(=O)Cn2c(=O)n(CCCC(=O)NCc3ccc4c(c3)OCO4)c(=O)c3ccccc32)cc1	inactive	
OC(c1ccccn1)(c1ccccn1)c1ccccn1	inconclusive: 35.5 µM [inhibitor, single point]	
CCCN1Cc2cccc(C(=O)Nc3ccc(CN4CCCC4)cc3)c2C1=O	inconclusive: 13 µM [inhibitor, partial curve, poor fit]	
COc1ccc(OC)c(CNC(=O)c2ccc(Sc3ccc(Cl)cc3)c(NC(C)=O)c2)c1	inconclusive: 6.31 µM [activator, single point]	
COc1ccc(Nc2nnc(SC(C)C(=O)NC3CC3)s2)cc1 (stereo not drawn)	inconclusive: 35.5 µM [inhibitor, single point]	
Nc1nc2c(nnn2Cc2ccc(Cl)c(Cl)c2)c(=O)[nH]1	inactive	
CCN(c1ccc(Cl)cc1)S(=O)(=O)c1nnc(NC(=O)c2ccco2)s1	inconclusive: 3.98 µM [inhibitor, full curve]	
COCCCN(C(=O)CCOc1ccc(C(C)(C)C)cc1)c1c(N)n(Cc2ccccc2)c(=O)[nH]c1=O	inactive	
CCCOc1ccc(C(CC(=O)O)NC(=O)c2ccc3c(c2)OCO3)cc1 (stereo not drawn)	inconclusive: 6.31 µM [activator, partial curve, poor fit]	
CCCCN(C(=O)Nc1ccc(Cl)cc1)C1CCN(C(C)=O)CC1	inconclusive: 35.5 µM [activator, partial curve, poor fit]	
Cc1ccc2c(c1)Cc1nc3ccccc3nc1-2	inconclusive: 31.6 µM [inhibitor, single point]	
C=CCc1ccc(OCC(O)COc2ccc(CC=C)cc2OC)c(OC)c1	inconclusive: 35.5 µM [inhibitor, single point]	
Oc1c(C(c2ccccc2F)N2CCC3(CC2)OCCO3)sc2nc(-c3ccco3)nn12 (stereo not drawn)	inconclusive: 6.31 µM [activator, partial curve, poor fit]	
O=C(CN1CC(=O)Oc2ccccc21)OCC(=O)c1ccc(F)cc1	inconclusive: 2.51 µM [inhibitor, partial curve, poor fit]	

As entered above.
CC(C)COc1ccc(-c2nnc(-c3ccncc3)o2)cc1 – Potency: inconclusive: 29.1 µM [inhibitor, single point]
Clc1nc(N2CCOCC2)ncc1Br – Potency: inconclusive: 35.5 µM [inhibitor, single point]
CCCN1Cc2cccc(C(=O)Nc3ccc(CN4CCCC4)cc3)c2C1=O – Potency: inconclusive: 13 µM [inhibitor, partial curve, poor fit]
Cc1c(C(=O)Nc2ccc3oc(-c4cccnc4)nc3c2)oc2ccccc12 – Potency: active: 18.3 µM

Later entries:

SMILES	Potency	activity change, negative = inhibition
Cc1ccc(NC(=S)NCCC(c2ccccc2)c2ccccc2)c(C)c1	inconclusive: 35.5 µM [inhibitor, single point]	
O=C(O)c1ccc(Sc2nnnn2-c2ccccc2)c([N+](=O)[O-])c1	inactive	
COc1ccc(NC(=O)CCNS(=O)(=O)c2cc(Br)ccc2Br)cc1S(N)(=O)=O	inactive	
Cc1c(NS(=O)(=O)CC23CCC(CC2=O)C3(C)C)c(=O)n(-c2ccccc2)n1C (stereo not drawn)	inconclusive: 0.82 µM [inhibitor, single point]	
O=C1CC(c2nc3ccccc3n2CCC2CCCCC2)CN1c1ccccc1Cl (stereo not drawn)	inconclusive: 11.2 µM [inhibitor, single point]	
CCCC1CCC(c2ccc(C(N)=O)cc2)CC1 (stereo not drawn)	inactive	
C=C(C)CNC(=S)NNC(=O)CCn1c2ccccc2c2ccccc21	inactive	
Cc1ccc(C)c(N2CCN(C(=O)C3CCN(S(=O)(=O)c4ccc5[nH]c(=O)oc5c4)CC3)CC2)c1	inactive	
O=C(CN(Cc1ccccc1)S(=O)(=O)c1ccccc1)N/N=C/c1ccccc1[N+](=O)[O-]	inconclusive: 0.13 µM [inhibitor, full curve, poor fit]	
Cc1oc2c(c1C(=O)Nc1cccc(C(=O)O)c1)CCCC2	inconclusive: 0.517 µM [activator, partial curve, poor fit]	
CCOC(=O)c1c(C)c(C(=O)Nc2cc(OC)ccc2OC)c(C)n1CC	inconclusive: 1.3 µM [inhibitor, full curve, poor fit]	
Cn1c(=O)oc2cc(S(=O)(=O)N3CCCC(C(=O)N4CCN(c5ccc(Cl)cc5)CC4)C3)ccc21 (stereo not drawn)	inconclusive: 10 µM [inhibitor, partial curve]	
Cc1nc([N+](=O)[O-])c(Br)n1CC(=O)c1ccc(Cl)cc1	inconclusive: 35.5 µM [inhibitor, single point]	
O=C(CN1CCN(c2ccccc2O)CC1)NCCCc1ccccc1	inconclusive: 2.82 µM [inhibitor, partial curve]	
Cc1cc(SCC(=O)N(C)CC(=O)Nc2ccc(F)cc2)nc2ccccc12	inconclusive: 1.64 µM [inhibitor, partial curve, poor fit]	
CCc1cccc(CC)c1N(COC)C(=O)Cn1c(CC)nc2ccccc21	inactive	
Nn1c(SCC(=O)Nc2c(Cl)cccc2Cl)nncc1=O	inconclusive: 8.91 µM [inhibitor, partial curve, poor fit]	
CC1=NOC(=O)/C1=C\c1ccc(-c2ccc(Cl)cc2Cl)o1	inconclusive: 35.5 µM [inhibitor, single point]	
CC(C)CNC(=O)CCCc1c[nH]c2ccccc12	inconclusive: 29.1 µM [inhibitor, single point]	
Cc1ccc2c(CC(=O)N3CCc4ccccc43)coc2c1	inactive	
COc1cc(NC(=O)c2c(F)c(F)c(OC)c(F)c2F)ccc1NC(=O)c1cccs1	inconclusive: 5.62 µM [activator, single point]	
CCNS(=O)(=O)c1cc(-c2nnc(Nc3cccc(C(F)(F)F)c3)c3ccccc23)ccc1C	inconclusive: 0.562 µM [inhibitor, full curve, poor fit]	
